Some of the results follow. The main result of the screen is listed elsewhere. These columns were measured beside it and carry no call. The list favours compounds with an active or inconclusive main result. The note in brackets gives the kind of curve behind each potency; many fits are weak.
Assay: qHTS Assay to Find Inhibitors of Chronic Active B-Cell Receptor Signaling
Conditions: ABC-DLBCL IkBa-CBG/CBR reporter, luminescence ratio (green luciferase fused to IkBa over red control in TMD8 lymphoma cells), 4 h
Method in brief: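 Compounds up to 46 uM were incubated four hours with TMD8 cells whose green CBG68 luciferase is fused to IkappaBalpha; red CBR luminescence normalised the signal, and concentration-effect curves were fitted to fusion, red and ratio data.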

[1] = measured here: CBR red luminescence, cell number
[2] = measured here: IkBa-CBG green luminescence

Structure (SMILES) | AC50 [1] | AC50 [2]
CC(NC(=O)Nc1ccc(Br)cc1)C(C)(C)C (stereo not drawn) | 17.8 µM [rising, partial curve, poor fit] | –
O=S(=O)(Nc1ncccn1)c1ccc(NS(=O)(=O)c2cccc(Cl)c2Cl)cc1 | 1.12 µM [rising, full curve, poor fit] | –
Cc1cc(-c2cccc([N+](=O)[O-])c2)nc2ccccc12 | 20.6 µM [rising, partial curve] | 18.4 µM [falling, single point]
CCOC(=O)Cc1csc(NC(=O)COc2ccccc2OC)n1 | 8.91 µM [falling, partial curve] | –
COC(=O)c1ccc(CNC(=O)c2ccc3c(c2)NC(=O)CS3)cc1 | 6.51 µM [falling, partial curve, poor fit] | –
COC(=O)c1ccccc1NC(=O)N1CCN(c2ccccc2)CC1 | 2.82 µM [rising, full curve, poor fit] | –
C/C(=N/Nc1nc(C)cc(-c2ccccc2)n1)c1ccco1 | 10.3 µM [falling, single point] | –
CCOC(=O)N1CCN(C(=O)c2ccccc2NC(C)=O)CC1 | – | 15.8 µM [falling, single point]
COc1ccc(-c2nc3c(c(=O)[nH]c(=O)n3Cc3ccccc3)n2C)cc1 | 0.184 µM [falling, full curve, poor fit] | –
CC(NCc1ccco1)C(=O)N1CCc2ccccc2C1 (stereo not drawn) | 4.61 µM [rising, single point] | 4.61 µM [falling, partial curve, poor fit]
O=C(COc1ccccc1[N+](=O)[O-])NCC1(N2CCOCC2)CCCCC1 | 0.731 µM [falling, partial curve, poor fit] | –
Cc1[nH]c2ccccc2c1C(=O)COC(=O)c1ccc[n+]([O-])c1 | 35.5 µM [falling, single point] | –
CCc1ccc(NC(=O)C(=O)NCC2CCCN2S(=O)(=O)c2cccs2)cc1 (stereo not drawn) | – | 20.6 µM [falling, partial curve, poor fit]
Cc1ccc(Sc2nnc(Cc3ccccc3)c3ccccc23)cc1 | 2.59 µM [falling, partial curve, poor fit] | –
Cc1cc(O)c(NC(=O)c2cccc([N+](=O)[O-])c2)cc1C | 3.98 µM [falling, single point] | –
CCOC(=O)c1c(-c2ccc(C)cc2C)csc1NC(=O)CSc1nnnn1C | 35.5 µM [falling, single point] | –
CCC(=O)Nc1sc2c(c1C#N)CCCCC2 | 13 µM [rising, single point] | –
CCOC(=O)C1CCN(C(=O)c2cc3c(-c4ccc(OC)c(OC)c4)nn(C)c3s2)CC1 | 5.62 µM [rising, single point] | –
O=C1Nc2ccc(F)cc2C12Nc1ccccc1-c1nnc(SCc3ccccc3F)nc1O2 (stereo not drawn) | 35.5 µM [falling, single point] | –
Cc1ccc(OCC(=O)Nc2sc3c(c2C#N)CCC3)cc1 | 11.2 µM [rising, partial curve, poor fit] | –

Structure (SMILES) | AC50 [1] | AC50 [2]
Cc1ccc2cc(C3CC(c4cccs4)=NN3S(C)(=O)=O)c(Cl)nc2c1 (stereo not drawn) | 35.5 µM [falling, single point] | –
N=C1c2ccccc2CN1NC(=O)c1cccc(S(=O)(=O)N2CCCCC2)c1 | 32.6 µM [falling, single point] | –
CC(C)CCNC1=CC(=O)CC(c2ccccc2)C1 (stereo not drawn) | 0.326 µM [rising, full curve, poor fit] | –
Cc1ccc(OCC(=O)Nc2cnn(CCCC(=O)O)c2)c([N+](=O)[O-])c1 | 35.5 µM [falling, single point] | –
O=c1n(Cc2ccccc2)c2cc(Cl)cnc2n1Cc1ccccc1 | 11.6 µM [falling, partial curve] | 16.4 µM [rising, partial curve, poor fit]
COc1cc(OC)cc(C(=O)N[C@H](C(=O)Nc2nc3ccc(S(C)(=O)=O)cc3s2)C(C)C)c1 | 35.5 µM [falling, single point] | –
COc1cc(/C=C2/NC(=O)NC2=O)ccc1OCC(=O)Nc1ccc(F)cc1 | 5.01 µM [rising, partial curve, poor fit] | –
O=C(C1CC1)N1N=C(c2ccc(Br)cc2)CC1(O)C(F)(F)F (stereo not drawn) | 0.316 µM [rising, partial curve, poor fit] | –
CCOc1ccc(-c2cc(N)n(S(=O)(=O)c3ccc(OC)c(OC)c3)n2)cc1 | 29.1 µM [falling, single point] | –
O=C1c2[nH]nc(-c3ccccc3O)c2C(c2cccc(Cl)c2)N1Cc1ccco1 (stereo not drawn) | 5.17 µM [falling, partial curve, poor fit] | –
CCCCCOC(=O)c1ccc(N2C(=O)C3C4C=CC(C4)C3C2=O)cc1 (stereo not drawn) | 6.51 µM [rising, partial curve, poor fit] | –
COc1ccc(CNC(=O)c2coc(=O)c3ccccc23)cc1 | 14.1 µM [rising, partial curve, poor fit] | –
CN=C(N)NCCC[C@H](N)C(=O)O | 0.0651 µM [falling, full curve, poor fit] | –
Cc1cccc(/C=N/NC(=O)c2ccccc2OCc2cccc(Br)c2)n1 | 11.2 µM [falling, partial curve, poor fit] | –
CC(NC(=O)c1ccco1)C(=O)OCC(=O)N1CCCCCC1 (stereo not drawn) | 6.51 µM [rising, partial curve, poor fit] | –
Cc1ccc2nc(N(CCCN(C)C)C(=O)c3ccc(Br)s3)sc2c1 | 0.708 µM [falling, full curve, poor fit] | –
CCc1ccc(-c2cn3nc(-c4ccccc4)cnc3n2)cc1 | 35.5 µM [falling, single point] | –
COc1ccc(Cc2nnc(NC(=O)c3ccc(OC)cc3OC)s2)cc1 | 12.6 µM [rising, single point] | 14.1 µM [falling, partial curve, poor fit]
O=[N+]([O-])c1ccc(-c2n(-c3ccccn3)c3ccccc3[n+]2-c2ccccn2)cc1 | 6.31 µM [rising, single point] | –

2 entries drawn at random from those above:
Structure (SMILES) | AC50 [1] | AC50 [2]
Cc1cc(O)c(NC(=O)c2cccc([N+](=O)[O-])c2)cc1C | 3.98 µM [falling, single point] | –
CCC(=O)Nc1sc2c(c1C#N)CCCCC2 | 13 µM [rising, single point] | –
